Results on twelve compounds are retold here after PubChem BioAssay AID2685 (National Center for Advancing Translational Sciences (NCATS), 2010).

This test can be described thus: qHTS Assay for Lipid Storage Modulators in Drosophila S3 Cells.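 On cell number change: cells counted by Cell Tracker Red CMTPX staining in the red channel.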 The note with it: BODIPY lipid droplet fluorescence, 18-24 h; for cell number change: measured here: cell count max response, cells fed with added oleic acid. The method in brief: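 Laser-scanning cytometry quantifies lipid droplet accumulation (500–530 nm total intensity; droplet/cell object ratio) in oleic acid-fed (400 uM added) Drosophila S3 cells treated with a concentration series. 20 uM Triacsin C defined 100% inhibition.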

[1] abbreviates: measured here: lipid fluorescence (Fed channel) AC50, cells fed with added oleic acid.
[2] abbreviates: measured here: cell number channel AC50, cells fed with added oleic acid.

The other results are listed elsewhere or left out. Shown are side measurements of this screen, not its main read-out; they come without a call. Compounds called inactive in the main read-out are mostly missing here. Potencies come from curve fits of mixed quality, noted in brackets.

Regarding `COc1ccc(NC(=O)Nc2cc(C)ccc2OC(F)F)c(OC)c1`, under setting [1], the AC50 was 0.13 µM [rising, full curve, poor fit]. On to `CCOC(=O)C1=C(N)Oc2cc(O)ccc2C1c1ccc(C)cc1` (stereo not drawn), for which the cell number change is -60.8%. The AC50 under setting [2] was 20.6 µM [falling, single point]. `COc1ccc(CCN(C(=O)Cn2nnc3ccccc32)C(C(=O)NCC2CCCO2)c2ccncc2)cc1OC` (stereo not drawn): the cell number change was 17.6%. For `Cc1ccc2oc(-c3cccc(NC(=O)/C=C/c4cccc([N+](=O)[O-])c4)c3C)nc2c1`, the cell number change was 4.57%. For the same compound, the half-maximal activity concentration (AC50) under setting [1] is 6.51 µM [falling, full curve, poor fit]. On to `C=C(C)C1CC=C(C)/C(=N/NC(=O)c2ccoc2C)C1` (stereo not drawn), for which the cell number change stood at 12%. Moreover, under setting [2], the AC50 is 4.61 µM [falling, single point].

Consider `O=[N+]([O-])c1ccc(N=Nc2ncc[nH]2)cc1`, for which the cell number change is -49.6%. The AC50 under setting [2] is 16.4 µM [falling, partial curve]. Besides, under setting [1], the AC50 is 16.4 µM [falling, partial curve].

As for `CC1CCN(c2ccc3nnc(CCC(=O)NCCCOC(C)C)n3n2)CC1`, the cell number change turned out to be 11.2%. The AC50 under setting [1] is 0.366 µM [rising, full curve, poor fit].

On to `CCc1cc(=O)oc2cc(OCc3nn[nH]n3)ccc12`, for which the cell number change came out at 72.9%. In addition, the AC50 under setting [2] was 1.46 µM [rising, full curve]. Besides, the AC50 under setting [1] was 1.64 µM [rising, partial curve].

Take `COC(=O)C1=CN(C(C)C)C=C(C(=O)OC)C1c1cc2c(cc1Br)OCO2`: the concentration at half-maximal activity (AC50) by setting is: under setting [2], 2.31 µM [rising, partial curve]; under setting [1], 4.11 µM [rising, partial curve, poor fit]. In the case of `Cc1ccc(C)c(N(C(=O)CCC(=O)Nc2cc(C)on2)C(C(=O)NC2CCCC2)c2ccco2)c1` (stereo not drawn), the cell number change came out at 11.7%. Under setting [2], the AC50 was 1.3 µM [rising, partial curve].

On to `COc1cccc(/C=C/C(=O)NCc2ccc3c(c2)OCO3)c1`, for which the cell number change turned out to be 24.3%. For `Nc1nc(SCC(=O)NCC2CCCO2)n[nH]1` (stereo not drawn), the cell number change was 10.9%. In addition, under setting [1], the AC50 was 20.6 µM [rising, single point].
